System: BAF complex subunits and histone proteins
Experiment: Mass spectrometry proteomics of purified HA-SS18 WT and HA-SS18-SSX1 complexes (Tables 5A-5E)
Design: species or system human
Settings: HEK-293T; for Total (total peptides) / Unique (unique peptides): HA-SS18SSX1 purification, NE (soluble nuclear extract) fraction, peptides per identified protein
[1] = HA-SS18WT_CHR_peptides: HA-SS18 WT purification from nuclease-treated solubilized chromatin (CHR), label = protein identified
[2] = HA-SS18WT_NE_peptides: HA-SS18 WT complexes purified from nuclear extract (NE), label = protein identified (Gene Symbol)

Molecule	Total (peptides) [1]	Unique (peptides) [1]	Total (total peptides)	Unique (unique peptides)	Total (peptides) [2]	Unique (peptides) [2]
STAU1 (protein, UniProt O95793 2-577, looked up) Double-stranded RNA-binding …: SQVQVQVQNPSAALSGSQILNKNQSLLSQPLMSIPSTTSSLPSENAGRPIQNSALPSASITSTSAAAESITPTVELNALCMKLGKKPMYKPVDPYSRMQSTYNYNMRGGAYPPRYFYPFPVPPLLYQVELSVGGQQFNGKGKTRQAAKHDAAAKALRILQNEPLPERLEVNGRESEEENLNKSEISQVFEIALKRNLPVNFEVARESGPPHMKNFVTKVSVGEFVGEGEGKSKKISKKNAAIAVLEELKKLPPLPAVERVKPRIKKKTKPIVKPQTSPEYGQGINPISRLAQIQQAKKEKEPEYTLLTERGLPRRREFVMQVKVGNHTAEGTGTNKKVAKRNAAENMLEILGFKVPQAQPTKPALKSEEKTPIKKPGDGRKVTFFEPGSGDENGTSNKEDEFRMPYLSHQQLPAGILPMVPEVAQAVGVSQGHHTKDFTRAAPNPAKATVTAMIARELLYGGTSPTAETILKNNISSGHVPHGPLTRPSEQLDYLSRVQGFQVEYKDFPKNNKNEFVSLINCSSQPPLISHGIGKDVESCHDMAALNILKLLSELDQQSTEMPRTGNGPMSVCGRC	3	3				
PPAN (protein, UniProt Q9NQ55 1-473, looked up) Suppressor of SWI4 1 homolog: MGQSGRSRHQKRARAQAQLRNLEAYAANPHSFVFTRGCTGRNIRQLSLDVRRVMEPLTASRLQVRKKNSLKDCVAVAGPLGVTHFLILSKTETNVYFKLMRLPGGPTLTFQVKKYSLVRDVVSSLRRHRMHEQQFAHPPLLVLNSFGPHGMHVKLMATMFQNLFPSINVHKVNLNTIKRCLLIDYNPDSQELDFRHYSIKVVPVGASRGMKKLLQEKFPNMSRLQDISELLATGAGLSESEAEPDGDHNITELPQAVAGRGNMRAQQSAVRLTEIGPRMTLQLIKVQEGVGEGKVMFHSFVSKTEEELQAILEAKEKKLRLKAQRQAQQAQNVQRKQEQREAHRKKSLEGMKKARVGGSDEEASGIPSRTASLELGEDDDEQEDDDIEYFCQAVGEAPSEDLFPEAKQKRLAKSPGRKRKRWEMDRGRGRLCDQKFPKTKDKSQGAQARRGPRGASRDGGRGRGRGRPGKRVA	3	3				
ALDH1B1 (protein, UniProt P30837 18-517, looked up) Aldehyde dehydrogenase X, …: RYSSAAALPSPILNPDIPYNQLFINNEWQDAVSKKTFPTVNPTTGEVIGHVAEGDRADVDRAVKAAREAFRLGSPWRRMDASERGRLLNRLADLVERDRVYLASLETLDNGKPFQESYALDLDEVIKVYRYFAGWADKWHGKTIPMDGQHFCFTRHEPVGVCGQIIPWNFPLVMQGWKLAPALATGNTVVMKVAEQTPLSALYLASLIKEAGFPPGVVNIITGYGPTAGAAIAQHVDVDKVAFTGSTEVGHLIQKAAGDSNLKRVTLELGGKSPSIVLADADMEHAVEQCHEALFFNMGQCCCAGSRTFVEESIYNEFLERTVEKAKQRKVGNPFELDTQQGPQVDKEQFERVLGYIQLGQKEGAKLLCGGERFGERGFFIKPTVFGGVQDDMRIAKEEIFGPVQPLFKFKKIEEVVERANNTRYGLAAAVFTRDLDKAMYFTQALQAGTVWVNTYNIVTCHTPFGGFKESGNGRELGEDGLKAYTEVKTVTIKVPQKNS			9	9	13	12
PCK2 (protein, UniProt Q16822 33-640, looked up) Phosphoenolpyruvate …: LSGDLGQLPTGIRDFVEHSARLCQPEGIHICDGTEAENTATLTLLEQQGLIRKLPKYNNCWLARTDPKDVARVESKTVIVTPSQRDTVPLPPGGARGQLGNWMSPADFQRAVDERFPGCMQGRTMYVLPFSMGPVGSPLSRIGVQLTDSAYVVASMRIMTRLGTPVLQALGDGDFVKCLHSVGQPLTGQGEPVSQWPCNPEKTLIGHVPDQREIISFGSGYGGNSLLGKKCFALRIASRLARDEGWLAEHMLILGITSPAGKKRYVAAAFPSACGKTNLAMMRPALPGWKVECVGDDIAWMRFDSEGRLRAINPENGFFGVAPGTSATTNPNAMATIQSNTIFTNVAETSDGGVYWEGIDQPLPPGVTVTSWLGKPWKPGDKEPCAHPNSRFCAPARQCPIMDPAWEAPEGVPIDAIIFGGRRPKGVPLVYEAFNWRHGVFVGSAMRSESTAAAEHKGKIIMHDPFAMRPFFGYNFGHYLEHWLSMEGRKGAQLPRIFHVNWFRRDEAGHFLWPGFGENARVLDWICRRLEGEDSARETPIGLVPKEGALDLSGLRAIDTTQLFSLPKDFWEQEVRDIRSYLTEQVNQDLPKEVLAELEALERRVHKM			9	9	7	7
BPIFB1 (protein, UniProt Q8TDL5 22-484, looked up) BPI fold-containing family B …: TLSPTAVLILGPKVIKEKLTQELKDHNATSILQQLPLLSAMREKPAGGIPVLGSLVNTVLKHIIWLKVITANILQLQVKPSANDQELLVKIPLDMVAGFNTPLVKTIVEFHMTTEAQATIRMDTSASGPTRLVLSDCATSHGSLRIQLLHKLSFLVNALAKQVMNLLVPSLPNLVKNQLCPVIEASFNGMYADLLQLVKVPISLSIDRLEFDLLYPAIKGDTIQLYLGAKLLDSQGKVTKWFNNSAASLTMPTLDNIPFSLIVSQDVVKAAVAAVLSPEEFMVLLDSVLPESAHRLKSSIGLINEKAADKLGSTQIVKILTQDTPEFFIDQGHAKVAQLIVLEVFPSSEALRPLFTLGIEASSEAQFYTKGDQLILNLNNISSDRIQLMNSGIGWFQPDVLKNIITEIIHSILLPNQNGKLRSGVPVSLVKALGFEAAESSLTKDALVLTPASLWKPSSPVSQ	7	7				
CHD1L (protein, UniProt Q86WJ1 1-897, looked up) Chromodomain-helicase-DNA-bind …: MERAGATSRGGQAPGFLLRLHTEGRAEAARVQEQDLRQWGLTGIHLRSYQLEGVNWLAQRFHCQNGCILGDEMGLGKTCQTIALFIYLAGRLNDEGPFLILCPLSVLSNWKEEMQRFAPGLSCVTYAGDKEERACLQQDLKQESRFHVLLTTYEICLKDASFLKSFPWSVLVVDEAHRLKNQSSLLHKTLSEFSVVFSLLLTGTPIQNSLQELYSLLSFVEPDLFSKEEVGDFIQRYQDIEKESESASELHKLLQPFLLRRVKAEVATELPKKTEVVIYHGMSALQKKYYKAILMKDLDAFENETAKKVKLQNILSQLRKCVDHPYLFDGVEPEPFEVGDHLTEASGKLHLLDKLLAFLYSGGHRVLLFSQMTQMLDILQDYMDYRGYSYERVDGSVRGEERHLAIKNFGQQPIFVFLLSTRAGGVGMNLTAADTVIFVDSDFNPQNDLQAAARAHRIGQNKSVKVIRLIGRDTVEEIVYRKAASKLQLTNMIIEGGHFTLGAQKPAADADLQLSEILKFGLDKLLASEGSTMDEIDLESILGETKDGQWVSDALPAAEGGSRDQEEGKNHMYLFEGKDYSKEPSKEDRKSFEQLVNLQKTLLEKASQEGRSLRNKGSVLIPGLVEGSTKRKRVLSPEELEDRQKKRQEAAAKRRRLIEEKKRQKEEAEHKKKMAWWESNNYQSFCLPSEESEPEDLENGEESSAELDYQDPDATSLKYVSGDVTHPQAGAEDALIVHCVDDSGHWGRGGLFTALEKRSAEPRKIYELAGKMKDLSLGGVLLFPVDDKESRNKGQDLLALIVAQHRDRSNVLSGIKMAALEEGLKKIFLAAKKKKASVHLPRIGHATKGFNWYGTERLIRKHLAARGIPTYIYYFPRSKSAVLHSQSSSSSSRQLVP			10	10		
HSPD1 (protein, UniProt P10809 27-573, looked up) 60 kDa heat shock protein, …: AKDVKFGADARALMLQGVDLLADAVAVTMGPKGRTVIIEQSWGSPKVTKDGVTVAKSIDLKDKYKNIGAKLVQDVANNTNEEAGDGTTTATVLARSIAKEGFEKISKGANPVEIRRGVMLAVDAVIAELKKQSKPVTTPEEIAQVATISANGDKEIGNIISDAMKKVGRKGVITVKDGKTLNDELEIIEGMKFDRGYISPYFINTSKGQKCEFQDAYVLLSEKKISSIQSIVPALEIANAHRKPLVIIAEDVDGEALSTLVLNRLKVGLQVVAVKAPGFGDNRKNQLKDMAIATGGAVFGEEGLTLNLEDVQPHDLGKVGEVIVTKDDAMLLKGKGDKAQIEKRIQEIIEQLDVTTSEYEKEKLNERLAKLSDGVAVLKVGGTSDVEVNEKKDRVTDALNATRAAVEEGIVLGGGCALLRCIPALDSLTPANEDQKIGIEIIKRTLKIPAMTIAKNAGVEGSLIVEKIMQSSSEVGYDAMAGDFVNMVEKGIIDPTKVVRTALLDAAGVASLLTTAEVVVTEIPKEEKDPGMGAMGGMGGGMGGGMF			10	10	12	12
YME1L1 (protein, UniProt Q96TA2 1-773, looked up) ATP-dependent zinc …: MFSLSSTVQPQVTVPLSHLINAFHTPKNTSVSLSGVSVSQNQHRDVVPEHEAPSSECMFSDFLTKLNIVSIGKGKIFEGYRSMFMEPAKRMKKSLDTTDNWHIRPEPFSLSIPPSLNLRDLGLSELKIGQIDQLVENLLPGFCKGKNISSHWHTSHVSAQSFFENKYGNLDIFSTLRSSCLYRHHSRALQSICSDLQYWPVFIQSRGFKTLKSRTRRLQSTSERLAETQNIAPSFVKGFLLRDRGSDVESLDKLMKTKNIPEAHQDAFKTGFAEGFLKAQALTQKTNDSLRRTRLILFVLLLFGIYGLLKNPFLSVRFRTTTGLDSAVDPVQMKNVTFEHVKGVEEAKQELQEVVEFLKNPQKFTILGGKLPKGILLVGPPGTGKTLLARAVAGEADVPFYYASGSEFDEMFVGVGASRIRNLFREAKANAPCVIFIDELDSVGGKRIESPMHPYSRQTINQLLAEMDGFKPNEGVIIIGATNFPEALDNALIRPGRFDMQVTVPRPDVKGRTEILKWYLNKIKFDQSVDPEIIARGTVGFSGAELENLVNQAALKAAVDGKEMVTMKELEFSKDKILMGPERRSVEIDNKNKTITAYHESGHAIIAYYTKDAMPINKATIMPRGPTLGHVSLLPENDRWNETRAQLLAQMDVSMGGRVAEELIFGTDHITTGASSDFDNATKIAKRMVTKFGMSEKLGVMTYSDTGKLSPETQSAIEQEIRILLRDSYERAKHILKTHAKEHKNLAEALLTYETLDAKEIQIVLEGKKLEVR			9	9	6	6
